Test results published in PubChem BioAssay AID1487 (National Center for Advancing Translational Sciences (NCATS), 2009).
Some of the results follow. The main result of the screen is listed elsewhere. These columns were measured beside it and carry no call. Compounds called inactive in the main read-out are mostly missing here. The note in brackets gives the kind of curve behind each potency; many fits are weak.

Assay: qHTS Assay for Modulators of Lamin A Splicing
Settings: HeLa LMNA splicing GFP/RFP minigene ratio, 48 h
Method in brief: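 S3 HeLa stable clones carrying a lamin A-EGFP splicing minigene plus DsRed2 were seeded at 600 cells/well in Opti-MEM with 2% FBS, pin-dosed and incubated 48 h at 37°C. Acumen cytometry (488 nm) gave the GFP/RFP total-intensity ratio.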

[1] = measured here: RFP viability control channel
[2] = measured here: GFP splicing reporter channel

SMILES | AC50 [1] | AC50 [2]
CS(=O)(=O)N(CC(=O)N1CCN(c2ccccc2)CC1)Cc1ccc(Cl)cc1 | 31.6 µM [rising, single point] | 
O=C(Nc1ccccc1)N1CCN(c2cccc(C(F)(F)F)c2)CC1 | 35.5 µM [rising, single point] | 
CC(C)N(Cc1nc(-c2ccccc2)no1)C(=O)c1ccc([N+](=O)[O-])cc1 |  | 17.8 µM [falling, partial curve, poor fit]
CCOC(=O)C1CCCN(CC(=O)Nc2cccc(C(C)=O)c2)C1 (stereo unspecified) | 0.00501 µM [falling, full curve, poor fit] | 0.00708 µM [falling, full curve, poor fit]
Cn1nc([N+](=O)[O-])nc1Oc1ccc(C(C)(C)C)cc1 | 35.5 µM [rising, single point] | 
COc1cc(CNc2nnnn2C)ccc1OCc1ccc(F)cc1Cl | 12.6 µM [falling, single point] | 
COc1ccccc1/C=C(/C(=O)OCC(=O)Nc1ccc(N(C)C)cc1)c1ccccc1 | 10 µM [rising, partial curve, poor fit] | 10 µM [rising, partial curve, poor fit]
O=C(O)Cn1nc(C(F)(F)F)c2c1CCCC2 | 0.0251 µM [falling, full curve, poor fit] | 
CCCn1c(N)c(C(=O)CSc2nc3ccccc3s2)c(=O)[nH]c1=O | 7.08 µM [rising, full curve, poor fit] | 
CN(CC(=O)Nc1ccc(S(=O)(=O)N2CCCC2)cc1)Cc1ccc(Cl)c(Cl)c1 | 15.8 µM [rising, single point] | 
c1ccc(CCCNc2ncnc3nc[nH]c23)cc1 | 31.6 µM [rising, single point] | 
O=C(CSc1ncc(-c2ccc(F)cc2)n1Cc1ccco1)Nc1ccc2c(c1)OCO2 | 12.6 µM [rising, partial curve] | 11.2 µM [rising, partial curve]
N#Cc1c(NC(=O)CSc2ncn[nH]2)sc2c1CCCCC2 | 22.4 µM [rising, single point] | 
CCCN(CC1CC1)C(=O)CSc1ncnc2sc(C)c(C)c12 | 8.91 µM [rising, partial curve] | 
Cc1cc(=O)n(Cc2cccc(Cl)c2)c2c1c(C)nn2-c1ccccc1 | 0.00355 µM [falling, full curve, poor fit] | 0.00316 µM [falling, full curve, poor fit]
CCN(CC)C(=O)c1sc2c(c1C)c(=O)n(-c1ccccc1)c(=O)n2CC(=O)Nc1ccc(C)cc1C |  | 0.00447 µM [rising, full curve, poor fit]
CCCCOC(=O)c1c(C)oc2ccc(NS(=O)(=O)c3ccc4c5c(cccc35)C(=O)N4)cc12 | 12.6 µM [rising, single point] | 11.2 µM [rising, single point]
CCc1nnc(NC(=O)c2cccc(S(=O)(=O)N3CCc4ccccc43)c2)s1 |  | 10 µM [rising, partial curve, poor fit]
CCOc1ccc(CC(=O)NCCc2sc3nc(-c4ccc(OC)cc4)nn3c2C)cc1 |  | 0.0631 µM [rising, full curve]

SMILES | AC50 [1] | AC50 [2]
Cc1ccc(N(CC(=O)NC(C)(C)C)C(=O)CS(=O)CC(=O)Nc2ccc(F)cc2)cc1 (stereo unspecified) | 1.58 µM [falling, partial curve] | 1.26 µM [falling, partial curve]
CCC1(CC)NC(=O)N(Cc2nc3ccccc3s2)C1=O | 3.98 µM [rising, single point] | 0.0224 µM [rising, full curve, poor fit]
CC(C)=N/N=c1\scc(C)n1Cc1ccco1 |  | 3.98 µM [falling, full curve, poor fit]
CCCn1nc([N+](=O)[O-])c(C(C#N)c2nc3ccccc3o2)c(Cl)c1=O (stereo unspecified) | 12.6 µM [rising, partial curve] | 
COc1cccc(C(=O)NC2CCN(CC(=O)Nc3c(C)cc(C)cc3C)CC2)c1 | 10 µM [falling, partial curve, poor fit] | 
COc1cc2c(O)c3c(c(-c4ccc5c(c4)OCO5)c2cc1OC)C(=O)OC3 | 8.91 µM [falling, partial curve] | 6.31 µM [falling, partial curve]
CCCC(=O)NC(c1ccc2c(c1)OCO2)c1cc(Cl)c2cccnc2c1O (stereo unspecified) | 2.82 µM [rising, full curve] | 
CCCCN(C)S(=O)(=O)c1cc(-c2nnc3c4ccccc4c(C)nn23)ccc1C |  | 0.01 µM [rising, full curve, poor fit]
COc1ccc(CCN(C)C(=O)/C=C/c2c(Cl)nc3ccccn23)cc1OC | 0.002 µM [falling, full curve] | 
COc1cc(NC(=O)CSc2nccc(C)n2)c(C)cc1[N+](=O)[O-] | 5.01 µM [rising, full curve, poor fit] | 
CC1CC(C)CN(c2nc(NCc3ccco3)nc(N)c2[N+](=O)[O-])C1 (stereo unspecified) | 25.1 µM [rising, partial curve] | 0.631 µM [rising, single point]
C=CCOc1ccc2c(c1)c(S(=O)(=O)c1ccc(C)cc1)cn2COC | 35.5 µM [rising, single point] | 17.8 µM [rising, single point]
O=c1c2ccccc2nnn1CSc1nnc(-c2cccs2)n1Cc1ccccc1 | 22.4 µM [rising, single point] | 
Cc1oc(-c2cccc(Br)c2)nc1CN1CCC(C(=O)NCCc2ccc(Cl)cc2)CC1 | 0.126 µM [falling, full curve, poor fit] | 0.398 µM [falling, partial curve]
O=S1(=O)CCN(Cc2cccc(C(F)(F)F)c2)CC1 | 3.16 µM [falling, full curve] | 
CC(C)CC1NC(=S)N(C2CCCCC2)C1=O (stereo unspecified) |  | 4.47 µM [rising, partial curve]
COc1cnc(-c2ccccn2)nc1Sc1ccc(Cl)cc1 | 35.5 µM [falling, single point] | 35.5 µM [falling, single point]
COc1ccccc1NC(=O)N1CCCC1C(=O)Nc1ccc2c(c1)OCCO2 (stereo unspecified) | 12.6 µM [rising, partial curve, poor fit] | 25.1 µM [rising, partial curve, poor fit]
COC(=O)C1=C(N)OC2=C(C(=O)CC(C)(C)C2)C1c1ccccc1OC (stereo unspecified) | 1.12 µM [falling, partial curve] | 0.0251 µM [falling, full curve, poor fit]

Grouped by structure, the compounds so far containing a cyano group.
SMILES | AC50 [1] | AC50 [2]
N#Cc1c(NC(=O)CSc2ncn[nH]2)sc2c1CCCCC2 | 22.4 µM [rising, single point] | 
CCCn1nc([N+](=O)[O-])c(C(C#N)c2nc3ccccc3o2)c(Cl)c1=O (stereo unspecified) | 12.6 µM [rising, partial curve] | 

Later entries

SMILES | AC50 [1] | AC50 [2]
OC(CNCCc1ccc(Cl)cc1)COCc1ccco1 (stereo unspecified) | 20 µM [rising, single point] | 
Cc1cc(NCCC(C)C)n2nc(C)c(-c3ccccc3)c2n1 | 22.4 µM [rising, single point] | 
COc1cccc(OCc2cc(/C=N/NC(=O)c3ccn[nH]3)ccc2OC)c1 | 35.5 µM [falling, single point] | 28.2 µM [falling, single point]
CC(C)[C@H](N)C(=O)OCCOCn1cnc2c(=O)[nH]c(N)nc21 |  | 6.31 µM [rising, single point]
N/C(=N\OC(=O)N1CCOCC1)c1ccccc1 | 35.5 µM [falling, partial curve] | 
COc1ccc(Br)cc1/C=N/n1c(C)nnc1C | 14.1 µM [rising, partial curve] | 
COc1cccc(OC)c1Nc1nc(C)nc2c1nnn2Cc1ccccc1Cl | 17.8 µM [falling, partial curve] | 
O=S(=O)(c1ccccc1)C(/C=N\O)/C=C/c1ccccc1 (stereo unspecified) | 0.631 µM [falling, full curve, poor fit] | 28.2 µM [falling, partial curve]
Cc1nnc(SCC(=O)c2ccc(Cl)cc2)s1 | 7.94 µM [rising, partial curve] | 
CN(C)C(=N)N=C(N)N | 0.00355 µM [falling, full curve, poor fit] | 0.00631 µM [falling, full curve, poor fit]
COc1ccc(C(=O)O/N=C(\N)Cc2ccc(Cl)cc2)cc1OC | 25.1 µM [falling, partial curve] | 22.4 µM [falling, single point]
COc1cc(/C=C/C(=O)Nc2ccc(C(C)=O)cc2)cc(OC)c1OC |  | 3.55 µM [falling, partial curve]
Cc1cccc(C(=O)Nc2nnc(-c3ccncc3)o2)c1 | 0.112 µM [falling, full curve, poor fit] | 0.0398 µM [falling, full curve, poor fit]
O=C(CO/N=C1\CCCc2nonc21)Nc1ccc(Br)cc1 | 7.08 µM [rising, partial curve] | 
O=C1CC(/C=C/c2ccccn2)=Nc2ccccc2N1 | 35.5 µM [rising, single point] | 
O=C(CSc1cccc[n+]1[O-])c1ccccc1Br | 0.891 µM [falling, full curve, poor fit] | 1.78 µM [falling, full curve, poor fit]
O=C(Cn1ccn(-c2ccc(F)cc2)c(=O)c1=O)NCCc1ccccc1 |  | 28.2 µM [falling, partial curve, poor fit]
CC(=O)Nc1nc(-c2ccccc2)c(-c2ccccc2)o1 | 35.5 µM [rising, single point] | 
